# The inconclusive results got no clear call from the source; some entries with a clear call stand among them for comparison. For part of these data: A potency beside an inconclusive call is a rough fit, not a confirmed value. The source made the active and inactive calls. Calls follow the shape of the dose curve; as a rule, active = well fitted curve in the direction sought with a large enough effect; inconclusive = small, poorly fitted or top-dose-only effect, or another doubt; inactive = no such curve, though single readings can be large; an effect the other way counts as inactive or inconclusive.
# Chains of the proteins cited; added tags and fusions are not shown.
# UniProt P08659, whole entry, looked up: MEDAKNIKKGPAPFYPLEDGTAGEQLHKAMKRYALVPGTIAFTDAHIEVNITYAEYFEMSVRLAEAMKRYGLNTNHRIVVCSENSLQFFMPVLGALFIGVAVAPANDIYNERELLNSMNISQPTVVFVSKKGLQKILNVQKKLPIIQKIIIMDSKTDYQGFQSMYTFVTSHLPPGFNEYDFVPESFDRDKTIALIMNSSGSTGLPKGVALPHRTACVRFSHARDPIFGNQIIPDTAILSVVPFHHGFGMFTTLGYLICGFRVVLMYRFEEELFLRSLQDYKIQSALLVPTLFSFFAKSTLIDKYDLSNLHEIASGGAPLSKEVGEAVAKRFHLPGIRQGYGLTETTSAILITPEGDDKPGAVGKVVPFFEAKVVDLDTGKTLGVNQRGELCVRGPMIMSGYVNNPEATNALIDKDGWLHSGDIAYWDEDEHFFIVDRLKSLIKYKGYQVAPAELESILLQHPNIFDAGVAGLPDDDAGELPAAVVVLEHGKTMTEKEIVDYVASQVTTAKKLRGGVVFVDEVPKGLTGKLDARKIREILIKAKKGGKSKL
# Key:
# [1] = system: NAD(P)H diaphorase (Clostridium kluyveri); experiment: Diaphorse counterscreen qHTS: Assay Interference Panel against the NCATS CANVASS Library (AID 1347362); conditions: Diaphorase enzyme, resazurin to resorufin fluorescence; also: potency is read from the fitted curve at half-maximal effect
# Method in brief: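 Clostridium kluyveri diaphorase in PBS + 0.01% Tween-20 preincubated 15 min with compounds. Resazurin and NADH then added for 5 min at room temperature in the dark; resorufin fluorescence read (ex 525, em 598).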
# [2] = KB-8-5-11 Cancer Cell Toxicity qHTS against the NCATS CANVASS Library (AID 1347364); conditions: KB-8-5-11 MDR cells viability, CellTiter-Glo, 72 h; also: potency is read from the fitted curve at half-maximal effect; nearly all actives have a fitted effect of over 75% in size
# Source text: (§1) Natural products and their derivatives continue to be wellsprings of nascent therapeutic potential. However, many laboratories have limited resources for biological evaluation, leaving their previously isolated or synthesized compounds largely or completely untested. To address this issue, the Canvass library of natural products was assembled (https://tripod.nih.gov/canvass), in collaboration with academic and industry researchers, for quantitative high-throughput screening (qHTS) across a diverse set of cell-based and biochemical assays. The pure (>85% purity by liquid chromatography/mass spectrometry [LC/MS]) Canvass library of 346 natural products were submitted by 45 academic laboratories and companies around the world. We collected pure natural products to circumvent deconvolution and structure elucidation due to time and resource limitations. The library was formatted into 1536-well plates and evaluated in 50 qHTS (in an 11-pnt concentration series) bioassays with broad scope of disease-relevant mechanisms. The resulting data set from 50 different assays was then systematically analyzed to identify overall trends and specific natural products with interesting biological activities. […]
# (§2) Cancer Cell Toxicity qHTS protocol 1. […] Luminescence signal was acquired via the ViewLux plate reader (PerkinElmer) using a clear emission filter, 1 sec exposure, and 1x binning settings.
# [3] = SDT Cancer Cell Toxicity qHTS against the NCATS CANVASS Library (AID 1347365); conditions: SDT dog glioma viability, ATP luminescence, 72 h; also: potency is read from the fitted curve at half-maximal effect; nearly all actives have a fitted effect of over 60% in size
# Method in brief: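 Luminescent ATP read-out (CellTiterGlo) after 72 hr compound exposure of dog glioma SDT cells, 500 per well. Eleven-point titrations; bortezomib titration run alongside as control.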
# [4] = G06 Cancer Cell Toxicity qHTS against the NCATS CANVASS Library (AID 1347368); conditions: G06 dog glioma cells, viability ATP luminescence, 72 h; series mostly up to 46.1 µM; also: nearly all actives have a fitted effect of over 60% in size; also: potency is read from the fitted curve at half-maximal effect
# Method in brief: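 ATP luminescence (CellTiterGlo) readout of cytotoxicity. Canine G06 glioma cells, 500/well, 72 hr incubation at 37C with compounds; bortezomib titration served as control.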
# [5] = qHTS for ATAD5 Antagonist screened against the NCATS CANVASS Library (AID 1347370); conditions: HEK293T-ATAD5-luc, 5-FUrd stimulated, luminescence, 16 h; at 46.1 µM (top of the series);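 also: HEK293T cells carrying an ATAD5 luciferase reporter co-treated with 10 µM 5-fluorouridine; % is scaled to controls: 0 for no effect and ±100 for the full control effect; nearly all actives have a fitted effect of over 65% in size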
# Source text: Natural products and their derivatives continue to be wellsprings of nascent therapeutic potential. However, many laboratories have limited resources for biological evaluation, leaving their previously isolated or synthesized compounds largely or completely untested. To address this issue, the Canvass library of natural products was assembled (https://tripod.nih.gov/canvass), in collaboration with academic and industry researchers, for quantitative high-throughput screening (qHTS) across a diverse set of cell-based and biochemical assays. […] The library was formatted into 1536-well plates and evaluated in 50 qHTS (in an 11-pnt concentration series) bioassays with broad scope of disease-relevant mechanisms. The resulting data set from 50 different assays was then systematically analyzed to identify overall trends and specific natural products with interesting biological activities. […] Luminescence intensity is proportional to ATAD5 expression. […]
# ATAD5 Agonist assay protocol: 1. […] A first readout of fluorescence signal was acquired via the ViewLux (PerkinElmer) plate reader using filter sets for AFC (380-400nmEx/505Em) and 1 second exposure setting. […] 8.#A second readout of luminescence signal was acquired via the ViewLux plate reader using a clear emission filter, 10 second exposure setting.
# [6] = qHTS for ATAD5 Agonist screened against the NCATS CANVASS Library (AID 1347367); conditions: HEK293T ATAD5-luciferase reporter, luminescence, 16 h; at 46.1 µM (top of the series);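 also: luciferase reporter driven by ATAD5 which rises upon DNA damage; 0% is about no effect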
# Method in brief: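 Genotoxicity via ATAD5-luciferase luminescence after 16 h compound exposure (11-point series) at 37C in HEK293T-ATAD5 cells. CellTiter-Fluor viability read precedes the luminescence read; MMS serves as positive control.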
# [7] = target: Luciferin 4-monooxygenase (Photinus pyralis) (UniProt P08659); experiment: Firefly luciferase counterscreen qHTS: Assay Interference Panel against the NCATS CANVASS Library (AID 1347363); conditions: purified firefly luciferase, luminescence inhibition, 5 min; also: potency is read from the fitted curve at half-maximal effect
# Method in brief: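 Purified P. pyralis luciferase (0.04 ug/mL, 4x reagent) added to Tris-acetate buffer with 0.013 mM D-luciferin, 0.013 mM ATP and 13.3 mM Mg-acetate; compounds preincubated 15 min, then luminescence read after 5 min, RT.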
# [8] = KB-3-1 Cancer Cell Toxicity qHTS against the NCATS CANVASS Library (AID 1347366); conditions: KB-3-1 viability, CellTiter-Glo luminescence, 72 h; at 46.1 µM (top of the series); also: % is scaled to controls: 0 for no effect and ±100 for the full control effect; nearly all actives have a fitted effect of over 75% in size
# Source text: as §1, §2
# [9] = HEK-293 Cancer Cell Toxicity qHTS against the NCATS CANVASS Library (AID 1347355); conditions: HEK-293 viability, CellTiter-Glo luminescence, 72 h; also: potency is read from the fitted curve at half-maximal effect; nearly all actives have a fitted effect of over 65% in size
# Source text: as §1, with “We collected pure natural products to circumvent deconvolution and structure elucidation due to time and resource limitations.” left out
# Cancer Cell Toxicity COV-362, OV-KATE, OV-SAHO, UWB1.289, UWB1.289-WTBRCA1, HEK-293, HPAF-II, Panc-1005, SW1088, and U-118MG-screen protocol. […] Luminescence signal was acquired via the ViewLux plate reader (PerkinElmer) using a clear filter, 2 second exposure and 2x binning settings.
# [10] = MCF7 Cancer Cell Toxicity qHTS against the NCATS CANVASS Library (AID 1347369); conditions: MCF7 viability, ATP luminescence (CellTiter-Glo), 72 h; also: potency is read from the fitted curve at half-maximal effect
# Method in brief: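 Cytotoxicity was measured as CellTiterGlo luminescence (ATP) after 72 h at 37 °C. The cells were MCF7 at 500 per well, with an 11-point compound concentration series.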
smiles,measurement,setting,value
O=c1c(O)c(-c2ccc(O)c(O)c2)oc2cc(O)ccc12,Potency,[1],"inconclusive: 21.6 µM [inhibitor, partial curve]"
same,Potency,[2],"inconclusive: 37.2 µM [cytotoxic, single point]"
same,Potency,[3],"inconclusive: 14.8 µM [cytotoxic, partial curve, poor fit]"
same,Potency,[4],"inconclusive: 11.8 µM [cytotoxic, partial curve, poor fit]"
same,"activity change, negative = inhibition",[5],inactive: 59.7%
CC(=O)NCCc1c[nH]c2ccc(O)cc12,Potency,[1],"inconclusive: 19.3 µM [inhibitor, partial curve, poor fit]"
same,activation,[6],inactive: -1.39%
same,Potency,[4],"inconclusive: 0.743 µM [cytotoxic, full curve]"
O=c1cc(-c2ccccc2)oc2cc(O)c(O)c(O)c12,Potency,[1],"inconclusive: 7.67 µM [inhibitor, partial curve, poor fit]"
same,Potency,[7],"inconclusive: 24.3 µM [inhibitor, partial curve]"
same,"activity change, negative = cytotoxicity",[8],inactive: 5.78%
same,"activity change, negative = inhibition",[5],inactive: 16.5%
O=C(O)c1cc(O)c(O)c(O)c1,Potency,[9],"inconclusive: 33.2 µM [cytotoxic, single point]"
same,Potency,[1],"inconclusive: 19.3 µM [inhibitor, partial curve]"
same,Potency,[4],inactive
same,Potency,[10],"inconclusive: 29.4 µM [cytotoxic, single point]"
CN1CCC[C@@H]1c1cccnc1,Potency,[3],"inconclusive: 18.7 µM [cytotoxic, partial curve]"
same,Potency,[4],"inconclusive: 16.6 µM [cytotoxic, partial curve]"

# Reprinted from the results shown for reference:
smiles,measurement,setting,value
O=C(O)c1cc(O)c(O)c(O)c1,Potency,[9],"inconclusive: 33.2 µM [cytotoxic, single point]"
same,Potency,[1],"inconclusive: 19.3 µM [inhibitor, partial curve]"

# From PubChem BioAssay (NCATS)
